Data set [1] addresses T1, MinElp3Δ1-46 del1-46 (Methanocaldococcus infernus) (UniProt D5VRB9).
T1 sequence (looked up): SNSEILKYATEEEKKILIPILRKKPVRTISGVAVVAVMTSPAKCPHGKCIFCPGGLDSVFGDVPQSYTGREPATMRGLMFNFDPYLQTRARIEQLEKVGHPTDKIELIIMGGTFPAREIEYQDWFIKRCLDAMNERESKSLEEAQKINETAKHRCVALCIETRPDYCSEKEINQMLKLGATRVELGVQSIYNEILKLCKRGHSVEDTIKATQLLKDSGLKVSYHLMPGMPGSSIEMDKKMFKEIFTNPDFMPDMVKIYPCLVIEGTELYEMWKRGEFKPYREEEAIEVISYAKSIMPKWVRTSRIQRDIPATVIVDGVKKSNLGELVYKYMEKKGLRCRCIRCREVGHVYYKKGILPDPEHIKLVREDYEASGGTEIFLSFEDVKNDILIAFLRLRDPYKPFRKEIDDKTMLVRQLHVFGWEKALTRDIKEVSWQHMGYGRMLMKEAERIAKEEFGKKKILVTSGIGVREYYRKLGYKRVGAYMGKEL
The experiment in a line: EMSA. The settings on record: EMSA: 25 C 30 min, 6% native PAGE at 4 C; tRNA stored in 20 mM HEPES pH 7.5, 150 mM NaCl, 5 mM DTT, 1 mM MgCl2; recombinant protein; residues 47-534; protein details: GST tag cleaved (TEV); label: Cy5. A general note: Mobility shift assays separate free from complexed probe on a gel.

For data set [2], the target named is T2, MinElp3 (Methanocaldococcus infernus) (UniProt D5VRB9).
T2 sequence (looked up): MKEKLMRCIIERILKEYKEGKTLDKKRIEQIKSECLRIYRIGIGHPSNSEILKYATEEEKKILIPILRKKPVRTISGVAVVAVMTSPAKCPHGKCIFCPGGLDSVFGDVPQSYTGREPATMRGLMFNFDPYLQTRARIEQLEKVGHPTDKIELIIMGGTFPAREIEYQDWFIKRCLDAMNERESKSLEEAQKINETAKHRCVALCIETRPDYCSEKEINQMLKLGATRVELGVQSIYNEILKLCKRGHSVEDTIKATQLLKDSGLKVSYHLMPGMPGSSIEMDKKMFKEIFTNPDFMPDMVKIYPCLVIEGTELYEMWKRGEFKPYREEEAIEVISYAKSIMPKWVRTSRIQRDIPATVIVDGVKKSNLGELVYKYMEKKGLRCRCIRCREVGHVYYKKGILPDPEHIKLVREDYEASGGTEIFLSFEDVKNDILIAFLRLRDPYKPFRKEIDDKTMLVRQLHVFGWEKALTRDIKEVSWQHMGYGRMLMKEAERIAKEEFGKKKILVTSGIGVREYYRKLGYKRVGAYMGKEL
Put plainly: MST. The note with it: replicates 322, 539, 293 nM; recombinant protein; residues 1-534; protein details: GST tag cleaved (TEV); label: Cy5-CTP (internal); probe letters rebuilt from the primers and the genome.

The target in data set [3] is T2, MinElp3 (Methanocaldococcus infernus). Put plainly: EMSA. The settings on record: EMSA: 25 C 30 min, 6% native PAGE at 4 C; tRNA stored in 20 mM HEPES pH 7.5, 150 mM NaCl, 5 mM DTT, 1 mM MgCl2; recombinant protein; residues 1-534; protein details: GST tag cleaved (TEV); label: Cy5.

For part of these data: A weaker result is weaker than the reference pair of the same experiment. Where a protein sequence is shown, tags need not be part of it. For part of these data: For at least one entry, the source does not settle the construct or the ends of the probe.

For orientation: Kd means the concentration at which binding is half-saturated.

Consider “GACAGACUUGAAAUCUGUU [ASL yeast tRNASerUGA]”, for which the binding result in data set [1] is “binds more weakly”.
“GGCACUAUGGCCGAGUGGUUAAGGCGACAGACUUGAAAUCUGUUGGGCUCUGCCCGCGCUGGUUCAAAUCCUGCUGGUGUCGGCGUCUUCCCAUGGGUGUAUUCGGUCG [(Sc)tRNASerUGA]”: the Kd in data set [2] was 370 nM.
As to UUUUUUUUU [polyU], the binding result in data set [3] is “binds more weakly”.

Source of the values: article PMC6367351 (Nature Communications, 2019).
